We go through 40 sequences from PMC7862700.

The other results are listed elsewhere or left out. Construct or isoform of the protein are uncertain.

This assay has as its target T1, ELF2 (UniProt Q15723).
T1 sequence: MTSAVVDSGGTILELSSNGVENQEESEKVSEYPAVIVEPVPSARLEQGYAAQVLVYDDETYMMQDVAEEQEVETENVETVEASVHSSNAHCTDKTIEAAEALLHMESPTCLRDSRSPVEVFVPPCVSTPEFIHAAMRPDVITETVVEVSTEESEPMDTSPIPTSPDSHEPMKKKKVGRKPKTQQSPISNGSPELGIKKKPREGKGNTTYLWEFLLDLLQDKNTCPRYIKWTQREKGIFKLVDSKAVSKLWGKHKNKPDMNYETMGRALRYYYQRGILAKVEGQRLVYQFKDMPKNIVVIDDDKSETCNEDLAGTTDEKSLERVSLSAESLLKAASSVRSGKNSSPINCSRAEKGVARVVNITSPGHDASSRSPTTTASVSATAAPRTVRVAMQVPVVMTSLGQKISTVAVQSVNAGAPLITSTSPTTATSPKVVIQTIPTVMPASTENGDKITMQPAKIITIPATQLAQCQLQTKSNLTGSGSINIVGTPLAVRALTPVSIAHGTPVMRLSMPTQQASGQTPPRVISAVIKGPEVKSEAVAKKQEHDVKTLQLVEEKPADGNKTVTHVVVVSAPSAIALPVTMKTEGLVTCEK
The assay can be described thus: DAPPL (digital affinity profiling via proximity ligation, sequencing). As to conditions: 10 mM Tris-HCl pH 7.5, 50 mM NaCl, 1 mM DTT, 4% glycerol, room temperature, 30 min; GST-TFs on glutathione beads, 16-mer random dsDNA library, 0.1% …; high values mean tight binding; double strand, one strand shown; scale: fold enrichment (6-mer frequency, TF over GST control).
Sequence TTGTCT gave a binding signal of 1.2.
Consider TCCTTG, for which the binding signal is 1.38.
In the case of AAGCAG it was 1.16; in that of TTGGTG, 1.24; in that of AAGCGA, 1.05.
Sequence TCCCGC displayed a binding signal of 1.42.
For GTAAAA, the binding signal was 1.18.
In the case of GAATTC it was 1.45; in that of ATTCTG, 1.2.
Regarding AATGCA, the binding signal came to 1.25.
In the case of TAACAT it was 1.29; in that of ATTCTA, 1.24; in that of CGAGTT, 1.08.
In the case of CTAACG it was 1.09; in that of ACTGCT, 1.33; in that of TTCACC, 1.32.
For the sequence CGACCT, the binding signal stood at 1.4.
CTACTC gave a binding signal of 1.29.
For AACCAT the value was 1.12; for CTATAA, 1.19; for ATTTCA, 1.3.
Take GCGATG: the binding signal was determined as 1.18.
For ACTTTT, the binding signal was 1.31.
Take GTTTCC: the binding signal turned out to be 3.5.
For CTATAC, the binding signal was found to be 1.2.
GATATA displayed a binding signal of 1.23.
Turning to AACGAC, the binding signal amounted to 1.1.
Consider TCTACG, for which the binding signal turned out to be 1.34.
TTGAAC gave a binding signal of 1.06.
In the case of GATGAA, the binding signal amounted to 1.15.
As to TTGACA, the binding signal amounted to 1.27.
For CGAGCT, the binding signal came to 1.06.
Take CCACGC: the binding signal is 1.13.
In the case of CGATCC it was 1.2.
CTACTT gave a binding signal of 2.2.
In the case of CCGGAA it was 9.21; in that of GAACTC, 1.35.
In the case of CTAAAA it was 1.12.
The sequence TATACT yielded a binding signal of 1.37.
With CCTGCA, the binding signal is 1.21.
